The source of these data is patent US7029861B1, “LPS-response gene compositions and methods” (Board of Regents, The University of Texas System, priority 1998, dated 2006).

The subject of this data set is RAW 264.7 cells. Put plainly: Expression level of each construct (copy number per cell) by equilibrium M2 antibody binding. It is filed as cell-based, murine. The note with it: stable RAW 264.7 clones, mean over n clones, M2 binding at a fixed concentration.

B1: Ectodomain: membrane-anchored truncated Tlr4, residues 22–660, lacking the entire cytoplasmic domain (protein)
chain: PGSLNPCIEVVPNITYQCMDQKLSKVPDDIPSSTKNIDLSFNPLKILKSYSFSNFSELQWLDLSRCEIETIEDKAWHGLHHLSNLILTGNPIQSFSPGSFSGLTSLENLVAVETKLASLESFPIGQLITLKKLNVAHNFIHSCKLPAYFSNLTNLVHVDLSYNYIQTITVNDLQFLRENPQVNLSLDMSLNPIDFIQDQAFQGIKLHELTLRGNFNSSNIMKTCLQNLAGLHVHRLILGEFKDERNLEIFEPSIMEGLCDVTIDEFRLTYTNDFSDDIVKFHCLANVSAMSLAGVSIKYLEDVPKHFKWQSLSIIRCQLKQFPTLDLPFLKSLTLTMNKGSISFKKVALPSLSYLDLSRNALSFSGCCSYSDLGTNSLRHLDLSFNGAIIMSANFMGLEELQHLDFQHSTLKRVTEFSAFLSLEKLLYLDISYTNTKIDFDGIFLGLTSLNTLKMAGNSFKDNTLSNVFANTTNLTFLDLSKCQLEQISWGVFDTLHRLQLLNMSHNNLLFLDSSHYNQLYSLSTLDCSFNRIETSKGILQHFPKSLAFFNLTNNSVACICEHQKFLQWVKEQKQFLVNVEQMTCATPVEMNTSLVLDFNNSTCYMYKTIISVSVVSVIVVSTVAFLIYHFYFHLILIA
modifications: left off: small tags and cut ends
notes: membrane-anchored truncated Tlr4, residues 22–660, lacking the entire cytoplasmic domain
With B1, the Copies/cell is recorded as 1.4 × 10^4 Copies/cell.

B2: Tlr4^Lps-n Cyt. Dom.: membrane-associated Tlr4 cytoplasmic domain, normal sequence, residues 630–835, with flag peptide, lacking the ectodomain (protein)
chain: TIISVSVVSVIVVSTVAFLIYHFYFHLILIAGCKKYSRGESIYDAFVIYSSQNEDWVRNELVKNLEEGVPRFHLCLHYRDFIPGVAIAANIIQEGFHKSRKVIVVVSRHFIQSRWCIFEYEIAQTWQFLSSRSGIIFIVLEKVEKSLLRQQVELYRLLSRNTYLEWEDNPLGRHIFWRRLKNALLDGKASNPEQTAEEEQETATWT
modifications: left off: small tags and cut ends
In the case of B2, the Copies/cell was 1.2 × 10^4 Copies/cell.

B3: Tlr4^Lps-d Cyt. Dom.: membrane-associated Tlr4 cytoplasmic domain with P712H, residues 630–835, with flag peptide, lacking the ectodomain (protein)
chain: TIISVSVVSVIVVSTVAFLIYHFYFHLILIAGCKKYSRGESIYDAFVIYSSQNEDWVRNELVKNLEEGVPRFHLCLHYRDFIHGVAIAANIIQEGFHKSRKVIVVVSRHFIQSRWCIFEYEIAQTWQFLSSRSGIIFIVLEKVEKSLLRQQVELYRLLSRNTYLEWEDNPLGRHIFWRRLKNALLDGKASNPEQTAEEEQETATWT
modifications: left off: small tags and cut ends
notes: membrane-associated Tlr4 cytoplasmic domain with P712H, residues 630–835, with flag peptide, lacking the ectodomain
Take B3: the Copies/cell was 9.9 × 10^3 Copies/cell.

B4: Tlr4^Lps-n: flag-tagged full-length normal mouse Tlr4, residues 22–835, expressed in RAW 264.7 cells (protein)
chain: PGSLNPCIEVVPNITYQCMDQKLSKVPDDIPSSTKNIDLSFNPLKILKSYSFSNFSELQWLDLSRCEIETIEDKAWHGLHHLSNLILTGNPIQSFSPGSFSGLTSLENLVAVETKLASLESFPIGQLITLKKLNVAHNFIHSCKLPAYFSNLTNLVHVDLSYNYIQTITVNDLQFLRENPQVNLSLDMSLNPIDFIQDQAFQGIKLHELTLRGNFNSSNIMKTCLQNLAGLHVHRLILGEFKDERNLEIFEPSIMEGLCDVTIDEFRLTYTNDFSDDIVKFHCLANVSAMSLAGVSIKYLEDVPKHFKWQSLSIIRCQLKQFPTLDLPFLKSLTLTMNKGSISFKKVALPSLSYLDLSRNALSFSGCCSYSDLGTNSLRHLDLSFNGAIIMSANFMGLEELQHLDFQHSTLKRVTEFSAFLSLEKLLYLDISYTNTKIDFDGIFLGLTSLNTLKMAGNSFKDNTLSNVFANTTNLTFLDLSKCQLEQISWGVFDTLHRLQLLNMSHNNLLFLDSSHYNQLYSLSTLDCSFNRIETSKGILQHFPKSLAFFNLTNNSVACICEHQKFLQWVKEQKQFLVNVEQMTCATPVEMNTSLVLDFNNSTCYMYKTIISVSVVSVIVVSTVAFLIYHFYFHLILIAGCKKYSRGESIYDAFVIYSSQNEDWVRNELVKNLEEGVPRFHLCLHYRDFIPGVAIAANIIQEGFHKSRKVIVVVSRHFIQSRWCIFEYEIAQTWQFLSSRSGIIFIVLEKVEKSLLRQQVELYRLLSRNTYLEWEDNPLGRHIFWRRLKNALLDGKASNPEQTAEEEQETATWT
modifications: left off: small tags and cut ends
notes: flag-tagged full-length normal mouse Tlr4, residues 22–835, expressed in RAW 264.7 cells
Take B4: the Copies/cell is 2.1 × 10^4 Copies/cell.

B5: Tlr4^Lps-d: flag-tagged full-length mouse Tlr4 with P712H mutation, residues 22–835, expressed in RAW 264.7 cells (protein)
chain: PGSLNPCIEVVPNITYQCMDQKLSKVPDDIPSSTKNIDLSFNPLKILKSYSFSNFSELQWLDLSRCEIETIEDKAWHGLHHLSNLILTGNPIQSFSPGSFSGLTSLENLVAVETKLASLESFPIGQLITLKKLNVAHNFIHSCKLPAYFSNLTNLVHVDLSYNYIQTITVNDLQFLRENPQVNLSLDMSLNPIDFIQDQAFQGIKLHELTLRGNFNSSNIMKTCLQNLAGLHVHRLILGEFKDERNLEIFEPSIMEGLCDVTIDEFRLTYTNDFSDDIVKFHCLANVSAMSLAGVSIKYLEDVPKHFKWQSLSIIRCQLKQFPTLDLPFLKSLTLTMNKGSISFKKVALPSLSYLDLSRNALSFSGCCSYSDLGTNSLRHLDLSFNGAIIMSANFMGLEELQHLDFQHSTLKRVTEFSAFLSLEKLLYLDISYTNTKIDFDGIFLGLTSLNTLKMAGNSFKDNTLSNVFANTTNLTFLDLSKCQLEQISWGVFDTLHRLQLLNMSHNNLLFLDSSHYNQLYSLSTLDCSFNRIETSKGILQHFPKSLAFFNLTNNSVACICEHQKFLQWVKEQKQFLVNVEQMTCATPVEMNTSLVLDFNNSTCYMYKTIISVSVVSVIVVSTVAFLIYHFYFHLILIAGCKKYSRGESIYDAFVIYSSQNEDWVRNELVKNLEEGVPRFHLCLHYRDFIHGVAIAANIIQEGFHKSRKVIVVVSRHFIQSRWCIFEYEIAQTWQFLSSRSGIIFIVLEKVEKSLLRQQVELYRLLSRNTYLEWEDNPLGRHIFWRRLKNALLDGKASNPEQTAEEEQETATWT
modifications: left off: small tags and cut ends
notes: flag-tagged full-length mouse Tlr4 with P712H mutation, residues 22–835, expressed in RAW 264.7 cells
B5: the Copies/cell is recorded as 2.0 × 10^4 Copies/cell.
